Measured data: PubChem BioAssay AID1224829 (NIAID, 2016)

Test: 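Follow-up of TLR4-NF-kappaB regulators using six separate siRNAs for each gene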 (follow-up of hits)
Cells: mouse RAW264.7 G9 macrophage reporter cells
Knock-down reagent: single siRNA against mouse genes, 100 nM
Timing: 2 days of siRNA knock-down, then 40 min of LPS before fixing
Challenge: LPS (Salmonella minnesota R595) at 10 ng/ml
Detection: 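High-content images after 40 min LPS exposure; GFP-p65 nucleus to surrounding ring signal ratio, normalised to plate median and non-targeting control wells, expressed as z-score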
Direction: p65 translocation z-score and gene median z-score, per vendor: higher = more nuclear NF-kappaB p65 after LPS
Hit rule: 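Active means the replicate-mean z-score lies beyond plus or minus 2, in either direction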
Calls: active = changed p65 translocation (either direction); inactive = no clear change
In all, the deposit lists about 3,800 reagents; below is a random part of them. 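Calls cover raised and lowered translocation; gene median uses one vendor's three siRNAs; qiagen siRNAs acted more weakly than ambion siRNAs.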 Entries without a mark were called inactive. The numbers tell different reagents against one gene apart. Reagent sequences are not shown.

p65 translocation z-score, replicate mean	p65 translocation z-score, replicate 1	p65 translocation z-score, replicate 2	gene median z-score, per vendor	target gene	reagent	siRNA vendor or control pool
0.708	0.357	1.06	0.837	Spryd7 (SPRY domain containing 7)	1	ambion single siRNA
-1.4	0.614	-3.42	0.837	Spryd7 (SPRY domain containing 7)	2	ambion single siRNA
4.16 (active)	5.93	2.39	0.837	Spryd7 (SPRY domain containing 7)	3	ambion single siRNA
0.783	1.51	0.0581	-0.0319	Spryd7 (SPRY domain containing 7)	4	qiagen single siRNA
-2.35 (active)	-3.35	-1.34	-0.0319	Spryd7 (SPRY domain containing 7)	5	qiagen single siRNA
0.67	-0.122	1.46	-0.0319	Spryd7 (SPRY domain containing 7)	6	qiagen single siRNA
-0.447	-0.77	-0.124	-0.545	Cyp4a31 (cytochrome P450, family 4, subfamily a, polypeptide 31)	1	qiagen single siRNA
-3.98 (active)	-7.64	-0.319	-0.545	Cyp4a31 (cytochrome P450, family 4, subfamily a, polypeptide 31)	2	qiagen single siRNA
0.465	-1.26	2.19	-0.545	Cyp4a31 (cytochrome P450, family 4, subfamily a, polypeptide 31)	3	qiagen single siRNA
-2.62 (active)	-1.37	-3.87	-2.79	Ctf1 (cardiotrophin 1)	1	ambion single siRNA
-1.15	0.485	-2.79	-2.79	Ctf1 (cardiotrophin 1)	2	ambion single siRNA
-3.9 (active)	-3.9		-2.79	Ctf1 (cardiotrophin 1)	3	ambion single siRNA
3.72 (active)	3.08	4.35	0.0633	Ctf1 (cardiotrophin 1)	4	qiagen single siRNA
-4.43 (active)	-4.43		0.0633	Ctf1 (cardiotrophin 1)	5	qiagen single siRNA
-2.96 (active)	-2.96		0.0633	Ctf1 (cardiotrophin 1)	6	qiagen single siRNA
-5.08 (active)	-6.14	-4.02	-2.45	Tbca (tubulin cofactor A)	1	ambion single siRNA
-0.0238	0.839	-0.887	-2.45	Tbca (tubulin cofactor A)	2	ambion single siRNA
-1.17	1.74	-4.08	-2.45	Tbca (tubulin cofactor A)	3	ambion single siRNA
1.55	1.47	1.63	-0.225	Tbca (tubulin cofactor A)	4	qiagen single siRNA
-0.702	-1.25	-0.156	-0.225	Tbca (tubulin cofactor A)	5	qiagen single siRNA
-0.973	-0.293	-1.65	-0.225	Tbca (tubulin cofactor A)	6	qiagen single siRNA
-0.94	-0.628	-1.25	-1.88	Adipoq (adiponectin, C1Q and collagen domain containing)	1	ambion single siRNA
-1.88	-2.48	-1.28	-1.88	Adipoq (adiponectin, C1Q and collagen domain containing)	2	ambion single siRNA
-6.07 (active)	-7.04	-5.09	-1.88	Adipoq (adiponectin, C1Q and collagen domain containing)	3	ambion single siRNA
1.38	1.12	1.63	-0.52	Adipoq (adiponectin, C1Q and collagen domain containing)	4	qiagen single siRNA
-0.52	-0.639	-0.4	-0.52	Adipoq (adiponectin, C1Q and collagen domain containing)	5	qiagen single siRNA
-3.86 (active)	-3.24	-4.47	-0.52	Adipoq (adiponectin, C1Q and collagen domain containing)	6	qiagen single siRNA
2.17 (active)	3.98	0.366	-0.495	Msn (moesin)	1	ambion single siRNA
-0.495	-0.923	-0.0672	-0.495	Msn (moesin)	2	ambion single siRNA
-4.1 (active)	-3.73	-4.47	-0.495	Msn (moesin)	3	ambion single siRNA
2.8 (active)	2.45	3.16	2.5	Msn (moesin)	4	qiagen single siRNA
2.94 (active)	2.56	3.33	2.5	Msn (moesin)	5	qiagen single siRNA
-0.647	1.09	-2.38	2.5	Msn (moesin)	6	qiagen single siRNA
-0.732	-0.0395	-1.42	-0.776	Xpa (xeroderma pigmentosum, complementation group A)	1	ambion single siRNA
-1.23	-1.17	-1.3	-0.776	Xpa (xeroderma pigmentosum, complementation group A)	2	ambion single siRNA
-0.347	-0.383	-0.311	-0.776	Xpa (xeroderma pigmentosum, complementation group A)	3	ambion single siRNA
1.28	0.0237	2.55	0.589	Xpa (xeroderma pigmentosum, complementation group A)	4	qiagen single siRNA
0.433	1.03	-0.161	0.589	Xpa (xeroderma pigmentosum, complementation group A)	5	qiagen single siRNA
0.589	0.589		0.589	Xpa (xeroderma pigmentosum, complementation group A)	6	qiagen single siRNA
3.11 (active)	4.7	1.51	0.0698	Slco2b1	1	ambion single siRNA
-0.853	-1.43	-0.279	0.0698	Slco2b1	2	ambion single siRNA
-1.38	-3.17	0.418	0.0698	Slco2b1	3	ambion single siRNA
1.73	1.63	1.83	1.15	Slco2b1	4	qiagen single siRNA
1.5	0.67	2.32	1.15	Slco2b1	5	qiagen single siRNA
-3.91 (active)	-3.98	-3.83	1.15	Slco2b1	6	qiagen single siRNA

Sorted by “p65 translocation z-score, replicate 1” (ascending): 4 of the entries above.
p65 translocation z-score, replicate mean	p65 translocation z-score, replicate 1	p65 translocation z-score, replicate 2	gene median z-score, per vendor	target gene	reagent	siRNA vendor or control pool
-5.08 (active)	-6.14	-4.02	-2.45	Tbca (tubulin cofactor A)	1	ambion single siRNA
-4.43 (active)	-4.43		0.0633	Ctf1 (cardiotrophin 1)	5	qiagen single siRNA
-2.96 (active)	-2.96		0.0633	Ctf1 (cardiotrophin 1)	6	qiagen single siRNA
-0.0238	0.839	-0.887	-2.45	Tbca (tubulin cofactor A)	2	ambion single siRNA

More results follow.
p65 translocation z-score, replicate mean	p65 translocation z-score, replicate 1	p65 translocation z-score, replicate 2	gene median z-score, per vendor	target gene	reagent	siRNA vendor or control pool
5.47 (active)	7.82	3.12	1.37	Phox2a (paired-like homeobox 2a)	1	ambion single siRNA
1.37	0.996	1.75	1.37	Phox2a (paired-like homeobox 2a)	2	ambion single siRNA
-1.24	-1.39	-1.09	1.37	Phox2a (paired-like homeobox 2a)	3	ambion single siRNA
-1.35	-2.17	-0.533	-1.44	Phox2a (paired-like homeobox 2a)	4	qiagen single siRNA
-1.75	-2.06	-1.44	-1.44	Phox2a (paired-like homeobox 2a)	5	qiagen single siRNA
-0.753	-0.753		-1.44	Phox2a (paired-like homeobox 2a)	6	qiagen single siRNA
0.224	-0.234	0.681	-0.443	Il17re (interleukin 17 receptor E)	1	ambion single siRNA
-0.06	0.532	-0.653	-0.443	Il17re (interleukin 17 receptor E)	2	ambion single siRNA
-5.15 (active)	-4.93	-5.37	-0.443	Il17re (interleukin 17 receptor E)	3	ambion single siRNA
0.119	0.119		0.119	Il17re (interleukin 17 receptor E)	4	qiagen single siRNA
1.63	1.4	1.86	0.119	Il17re (interleukin 17 receptor E)	5	qiagen single siRNA
-4.37 (active)	-4.75	-4	0.119	Il17re (interleukin 17 receptor E)	6	qiagen single siRNA
-0.824	-0.0126	-1.64	-0.824	Atg12 (autophagy related 12)	1	ambion single siRNA
-2.46 (active)	-2.43	-2.49	-0.824	Atg12 (autophagy related 12)	2	ambion single siRNA
0.437	0.0164	0.858	-0.824	Atg12 (autophagy related 12)	3	ambion single siRNA
1.88	0.473	3.29	-1.11	Atg12 (autophagy related 12)	4	qiagen single siRNA
-1.11	-1.01	-1.21	-1.11	Atg12 (autophagy related 12)	5	qiagen single siRNA
-2.14 (active)	-1.55	-2.73	-1.11	Atg12 (autophagy related 12)	6	qiagen single siRNA
-2.97 (active)	-2.36	-3.59	-1.77	Cbln2 (cerebellin 2 precursor protein)	1	ambion single siRNA
-2.14 (active)	-3.1	-1.18	-1.77	Cbln2 (cerebellin 2 precursor protein)	2	ambion single siRNA
1.97	4.28	-0.334	-1.77	Cbln2 (cerebellin 2 precursor protein)	3	ambion single siRNA
4.07 (active)	3.5	4.64	-0.328	Cbln2 (cerebellin 2 precursor protein)	4	qiagen single siRNA
-0.328	-0.472	-0.185	-0.328	Cbln2 (cerebellin 2 precursor protein)	5	qiagen single siRNA
-2.29 (active)	-1.6	-2.97	-0.328	Cbln2 (cerebellin 2 precursor protein)	6	qiagen single siRNA
